The text below walks through data of PubChem BioAssay AID2685 (National Center for Advancing Translational Sciences (NCATS), 2010).

Several values for one entry are separate records, joined by “and”; a condition that tells them apart may be missing. Equal entries are not always repeated. The list shows a part of the results. Further columns of the screen follow, without active or inactive calls. Most of these compounds were active or inconclusive in the main read-out, so they are no random draw. Potencies come from curve fits of mixed quality, noted in brackets.

A short description of the test: qHTS Assay for Lipid Storage Modulators in Drosophila S3 Cells.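 As to cell number change: cells counted by Cell Tracker Red CMTPX staining in the red channel.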 As to conditions: BODIPY lipid droplet fluorescence, 18-24 h; for cell number change: measured here: cell count max response, cells fed with added oleic acid. The essentials:
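Laser-scanning cytometry quantifies lipid droplet accumulation (500–530 nm total intensity; droplet/cell object ratio) in oleic acid-fed (400 uM added) Drosophila S3 cells treated with a concentration series. 20 uM Triacsin C defined 100% inhibition.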

Setting [1] is: measured here: cell number channel AC50, cells fed with added oleic acid.
[2] abbreviates: measured here: lipid fluorescence (Fed channel) AC50, cells fed with added oleic acid.

Usually AC50 stands for the concentration at which the activity in the assay is half-maximal. Low values mean greater potency, high ones weaker potency. Regarding `Cc1csc(CNc2ncnc3ccc(-c4ccoc4)cc23)c1`, the cell number change was 0.361% and 16.7%. Also, under setting [1], the AC50 was 0.00517 µM [rising, full curve, poor fit].

For `CCCC(O)(c1ccc(Cl)cc1)C(CN1CCOCC1)c1ccccc1` (stereo not drawn), the cell number change was -30%. Besides, the AC50 under setting [1] is 8.2 µM [falling, partial curve, poor fit]. Moreover, the AC50 under setting [2] is 20.6 µM [falling, partial curve].

As to `Cc1ccccc1NC(=O)CN1CCC(NC(=O)Nc2ccccc2)CC1`, the AC50 under setting [1] was 0.366 µM [rising, full curve].

With `O=S(=O)(c1ccccc1)N1N=C(c2ccc(O)cc2)CC1c1ccco1` (stereo not drawn), the cell number change was -32.1%. In addition, the AC50 under setting [2] is 10.3 µM [falling, partial curve].

For `Cc1cccc(NC(=O)C(=O)NCCCc2ccccc2)c1`, the cell number change was -17.7%.

With `COc1ccc(NC(=O)CSc2nnc(Cc3ccccc3)o2)c(OC)c1`, the cell number change was determined as 3.56%.

As for `Cc1ccccc1OCC(=O)Nc1nc(-c2ccncc2)cs1`, the cell number change was -27.1%. Besides, the AC50 under setting [2] was 0.461 µM [rising, full curve, poor fit].

As for `NC(=O)c1ncc(C(F)(F)F)cc1Oc1cccnc1`, the cell number change worked out at 32.8%. Moreover, the AC50 under setting [1] is 2.06 µM [rising, partial curve].

Regarding `O=C(NCCO)C(=O)NCC(c1ccc2c(c1)OCO2)N1CCN(c2ccc(F)cc2)CC1` (stereo not drawn), the cell number change was 21.1%. The AC50 under setting [2] is 3.66 µM [rising, single point].

`Cc1cc2nc3c(c(=O)n2[nH]1)CCCC3`: the cell number change is 47.7%. Moreover, under setting [1], the AC50 is 29.1 µM [rising, single point]. Further, the AC50 under setting [2] is 6.51 µM [falling, single point].

Turning to `O=C(N=Nc1c(O)[nH]c2ccc([N+](=O)[O-])cc12)c1ccccc1Cl`, the cell number change is -54.7%. Under setting [1], the AC50 is 29.1 µM [falling, single point]. Also, the AC50 under setting [2] was 25.9 µM [falling, single point].

As to `CC(C)(C)c1c(Cl)c(O)c(-c2ccccc2)c(=O)n1-c1ccccc1`, the cell number change was determined as 9.86%.

Regarding `OCC[C@@H]1C[C@@H](O)[C@H](O)[C@]2(CCc3ccccc3CO2)O1`, the cell number change worked out at 14.1%. For the same compound, the AC50 under setting [2] is 29.1 µM [rising, single point].

Take `COCC(C)NC(=O)CSc1nc2ccccc2c(=O)n1CCc1ccc(S(N)(=O)=O)cc1` (stereo not drawn): the cell number change is -52.9%. Also, the half-maximal activity concentration (AC50) under setting [1] was 29.1 µM [falling, single point]. The AC50 under setting [2] was 0.517 µM [falling, full curve].

In the case of `O=[N+]([O-])c1ccc(Cl)cc1N1CCOCC1`, the cell number change came to 14%. For the same compound, the AC50 under setting [2] is 6.51 µM [falling, single point].

Take `Cc1ccc(NC(=O)CCNC(=O)c2ccc(Br)cc2)cc1S(=O)(=O)N1CCOCC1`: the cell number change was -99.5%. In addition, the AC50 under setting [1] is 23.1 µM [falling, single point].

As for `CCC(=O)Nc1ccc(S(=O)(=O)N2CCc3ccccc32)cc1`, the cell number change is -35.4%. Also, the AC50 under setting [1] is 29.1 µM [falling, single point].

On to `OCCN(CCO)c1ccc(C(c2ccc(Cl)cc2)c2ccc(N(CCO)CCO)cc2Cl)c(Cl)c1`, for which the cell number change was -61.3%. For the same compound, the AC50 under setting [1] was 20.6 µM [falling, single point].

In the case of `O=C(N/N=C/c1cc(Br)cc(Br)c1O)c1ccncc1`, the cell number change is 31%. For the same compound, under setting [1], the AC50 is 29.1 µM [rising, single point].

On to `O=C(Cn1c(=O)cnc2ccccc21)Nc1cccc(S(=O)(=O)N2CCCCC2)c1`, for which the cell number change turned out to be 1.93%. Besides, the AC50 under setting [2] was 4.61 µM [falling, single point].

In the case of `COc1cccc(-c2cc(C(=O)Nc3ccc4c(c3)OCO4)no2)c1`, the cell number change was -1.28%.

Regarding `COc1ccc(OCC(=O)NCc2ccc(Cl)cc2)cc1`, the cell number change was 36.5%. Under setting [1], the AC50 is 29.1 µM [rising, single point]. Further, under setting [2], the AC50 was 29.1 µM [rising, single point].

On to `COc1ccc(CC(=O)O/N=C(\N)Cc2cccc3ccccc23)cc1`, for which the cell number change turned out to be 10.5%. In addition, the AC50 under setting [2] was 1.84 µM [rising, partial curve].

For `CC(C)CC(C(=O)Nc1oc(-c2ccccc2)c(-c2ccccc2)c1C#N)N1C(=O)c2ccccc2C1=O` (stereo not drawn), the cell number change is -32.7%. Besides, the AC50 under setting [1] was 23.1 µM [falling, single point].

Consider `CN(C(=O)c1ccco1)c1nnc(-c2ccc(F)cc2)s1`, for which the cell number change worked out at 0.901%. For the same compound, the AC50 under setting [2] was 6.51 µM [falling, single point].

With `COc1ccccc1/C=C/C(=O)OCCN1C(=O)c2ccccc2C1=O`, the cell number change is -0.826%. Besides, under setting [2], the AC50 is 13 µM [falling, single point].

`COc1ccc(N=C2SCC(c3ccc(C)cc3)=NN2CCO)cc1`: the cell number change was found to be 42.3%. For the same compound, the AC50 under setting [1] is 18.4 µM [rising, single point]. Also, under setting [2], the AC50 is 29.1 µM [rising, single point].

For the compound `c1ccc(-c2ccc(-c3cn4c(n3)CCC4)cc2)cc1`, the AC50 under setting [1] was 3.66 µM [rising, partial curve].

In the case of `CCS(=O)(=O)N1CCC(C(=O)NCc2ccco2)CC1`, the cell number change was -4.9%.

For `O=c1c2ccccc2nc2n1C(CBr)CS2` (stereo not drawn), the cell number change was -21.9%. Also, under setting [2], the AC50 is 20 µM [falling, partial curve].

Regarding `CCOc1ccc(C(=O)COC(=O)c2nc3nccc(C)n3n2)cc1`, the cell number change is -21.8%. Also, the AC50 under setting [2] was 16.4 µM [rising, single point].

Regarding `CCSC1=C(C#N)C(CC(C)C)C2=C(CCCC2=O)N1` (stereo not drawn), the cell number change worked out at 12.5%. The AC50 under setting [1] is 6.51 µM [rising, single point].

With `COc1ccc(NC(=O)c2c(C)cc(=O)oc2C)c(OC)c1`, the cell number change was 7.08%. Under setting [2], the AC50 was 0.092 µM [falling, full curve, poor fit].

Regarding `Fc1ccccc1CNC(=S)Nc1cccc(C(F)(F)F)c1`, the cell number change is -40.4%. Also, the AC50 under setting [1] was 16.4 µM [falling, single point].

`Cc1ccccc1C(=O)Nc1cccc(C(=O)N/N=C/c2ccc3c(c2)OCO3)c1`: the cell number change turned out to be 25.4%. The AC50 under setting [1] was 0.0517 µM [rising, full curve, poor fit].

`COc1ccc(N2C(=O)CCC(C(=O)N3CCOCC3)C2c2ccc(F)cc2)cc1` (stereo not drawn): the cell number change is -22.7%. Moreover, the AC50 under setting [1] was 0.651 µM [falling, full curve]. Also, the AC50 under setting [2] was 0.58 µM [falling, single point].

Consider `O=C(COC(=O)/C=C/c1cccc(Br)c1)NCCc1ccccc1`, for which the cell number change was 23.8%.

Turning to `O=[N+]([O-])/C=C/c1ccc2c(ccn2Cc2ccccc2)c1`, the cell number change was -56.4%. Under setting [1], the AC50 was 11.6 µM [falling, partial curve]. In addition, the AC50 under setting [2] is 7.31 µM [falling, partial curve].

For the compound `CCc1ccc(C2=NN(c3ccc(S(N)(=O)=O)cc3)C(c3ccc(F)cc3)C2)cc1` (stereo not drawn), the cell number change was -24.7%. The AC50 under setting [2] was 3.66 µM [rising, single point].

`O=C(c1cccs1)N1CCN(c2ccc(Cl)cc2)CC1`: the cell number change was -6.08%. Further, under setting [2], the AC50 is 18.4 µM [rising, single point].

`O=C(Nc1ccc(N2CCCC2)c(Cl)c1)c1ccc([N+](=O)[O-])cc1`: the cell number change was 14.8%. For the same compound, the AC50 under setting [2] was 6.51 µM [rising, single point].

For `COc1ccccc1-n1c(SCC(=O)O)nc2c(sc(=S)n2-c2ccc(C)c(C)c2)c1=O`, the AC50 was 0.58 µM [rising, single point] under setting [1] and 1.16 µM [rising, full curve] under setting [2].

In the case of `C=CCC(c1ccccc1F)N(CCN1CCOCC1)C(=O)Nc1cccc(Cl)c1` (stereo not drawn), the AC50 by setting is: under setting [1], 6.51 µM [rising, single point]; under setting [2], 6.51 µM [rising, single point].

As to `CCCN1CCCc2cc(CN)ccc21`, the cell number change was -19.5%. Under setting [1], the AC50 was 0.82 µM [falling, full curve, poor fit]. Besides, the AC50 under setting [2] is 0.461 µM [rising, full curve, poor fit].

In the case of `CCN(CC)S(=O)(=O)c1ccc(=O)n(CC(=O)N2CCCc3cc(C)ccc32)c1`, the cell number change is -4.9%. Further, under setting [2], the AC50 is 0.00651 µM [rising, full curve, poor fit].

On to `Cc1nn(C(C)C(=O)NCc2cccs2)c(=O)c2nn(-c3ccccc3)c(C)c12` (stereo not drawn), for which the cell number change was found to be 0.295%. For the same compound, under setting [2], the AC50 was 0.58 µM [rising, single point].

As for `COc1ccc(NC(=O)N(Cc2cccs2)Cc2cc3cc4c(cc3[nH]c2=O)OCO4)cc1`, the cell number change was 22.3%. Also, the AC50 under setting [2] is 0.0231 µM [rising, full curve, poor fit].

As for `COc1cc(CNCCc2ccccc2)cc(Br)c1OCC(=O)Nc1ccccc1C`, the cell number change is -53.1%.

With `Cc1ccc(/C(O)=C2/C(=O)C(=O)N(Cc3cccnc3)C2c2ccccn2)cc1` (stereo not drawn), the cell number change was -214%. Besides, the AC50 under setting [1] is 23.1 µM [falling, partial curve]. Moreover, the AC50 under setting [2] is 0.82 µM [falling, full curve].

As to `O=c1c2oc3ccccc3c2ncn1Cc1ccc(F)cc1`, the cell number change amounted to 7.83%. Besides, the AC50 under setting [2] is 0.146 µM [rising, full curve, poor fit].

For the compound `CC(=O)c1c(C)oc(C)c1CSCc1ccc(C(=O)O)o1`, the cell number change turned out to be 3.34%. The AC50 under setting [2] was 3.66 µM [falling, full curve].

Take `COc1ccc(NC(=O)Cn2c(=O)oc3cc(S(=O)(=O)N4CCCC4)ccc32)c(OC)c1`: the cell number change amounted to 11.7%. Also, the AC50 under setting [2] is 29.1 µM [rising, partial curve, poor fit].

For `CC(C)c1ccc(C(=O)NN2C(=O)C3CCCCC3C2=O)cc1` (stereo not drawn), the cell number change came to 27.1%. The AC50 under setting [2] is 16.4 µM [rising, single point].

In the case of `COCCn1c(SCC(=O)NC2CC2)nc2ccccc21`, the cell number change was -0.478%. Moreover, the AC50 under setting [2] is 18.4 µM [rising, single point].

Turning to `CC(C)(C)c1ccc(C(=O)Nc2cccc3ncccc23)cc1`, under setting [2], the AC50 was 5.17 µM [falling, single point].

Take `Cc1noc(NS(=O)(=O)c2ccc(NC(=O)c3ccc(N(C)C)cc3)cc2)c1C`: the cell number change was -32.5%. Moreover, under setting [1], the AC50 was 25.9 µM [falling, single point]. For the same compound, under setting [2], the AC50 is 2.59 µM [falling, single point].

In the case of `Cc1c(-c2nc(N)nc(Nc3ccc(F)cc3)n2)oc2ccccc12`, the cell number change was -69.5%. Moreover, the AC50 under setting [1] was 18.4 µM [falling, single point]. For the same compound, the AC50 under setting [2] is 0.461 µM [rising, partial curve].

With `CCOc1ccc(-c2nc(S(=O)(=O)c3ccccc3)c(N3CCC(C(N)=O)CC3)o2)cc1`, the cell number change is 14.3%. Further, the AC50 under setting [2] is 0.103 µM [rising, full curve, poor fit].
